For nine molecules, binding results are on record in publication PMC11628678.

Sequences of proteins named here, by UniProt entry; tags and fusion partners are left off.
UniProt P20700: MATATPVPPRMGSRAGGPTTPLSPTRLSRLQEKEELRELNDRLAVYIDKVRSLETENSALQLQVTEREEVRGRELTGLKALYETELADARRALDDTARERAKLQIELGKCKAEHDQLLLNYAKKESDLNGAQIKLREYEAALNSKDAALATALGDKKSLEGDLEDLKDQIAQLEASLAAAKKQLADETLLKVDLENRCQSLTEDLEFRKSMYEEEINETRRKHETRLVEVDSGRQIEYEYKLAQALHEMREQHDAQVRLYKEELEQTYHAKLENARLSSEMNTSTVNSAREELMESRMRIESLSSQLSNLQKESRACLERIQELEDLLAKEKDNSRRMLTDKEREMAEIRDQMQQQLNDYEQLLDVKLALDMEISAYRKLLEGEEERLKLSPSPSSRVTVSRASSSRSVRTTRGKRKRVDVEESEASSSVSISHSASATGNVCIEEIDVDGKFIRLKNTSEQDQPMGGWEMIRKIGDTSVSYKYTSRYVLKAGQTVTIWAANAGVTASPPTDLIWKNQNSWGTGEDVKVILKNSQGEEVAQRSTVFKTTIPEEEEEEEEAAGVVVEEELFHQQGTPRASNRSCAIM
UniProt P78527: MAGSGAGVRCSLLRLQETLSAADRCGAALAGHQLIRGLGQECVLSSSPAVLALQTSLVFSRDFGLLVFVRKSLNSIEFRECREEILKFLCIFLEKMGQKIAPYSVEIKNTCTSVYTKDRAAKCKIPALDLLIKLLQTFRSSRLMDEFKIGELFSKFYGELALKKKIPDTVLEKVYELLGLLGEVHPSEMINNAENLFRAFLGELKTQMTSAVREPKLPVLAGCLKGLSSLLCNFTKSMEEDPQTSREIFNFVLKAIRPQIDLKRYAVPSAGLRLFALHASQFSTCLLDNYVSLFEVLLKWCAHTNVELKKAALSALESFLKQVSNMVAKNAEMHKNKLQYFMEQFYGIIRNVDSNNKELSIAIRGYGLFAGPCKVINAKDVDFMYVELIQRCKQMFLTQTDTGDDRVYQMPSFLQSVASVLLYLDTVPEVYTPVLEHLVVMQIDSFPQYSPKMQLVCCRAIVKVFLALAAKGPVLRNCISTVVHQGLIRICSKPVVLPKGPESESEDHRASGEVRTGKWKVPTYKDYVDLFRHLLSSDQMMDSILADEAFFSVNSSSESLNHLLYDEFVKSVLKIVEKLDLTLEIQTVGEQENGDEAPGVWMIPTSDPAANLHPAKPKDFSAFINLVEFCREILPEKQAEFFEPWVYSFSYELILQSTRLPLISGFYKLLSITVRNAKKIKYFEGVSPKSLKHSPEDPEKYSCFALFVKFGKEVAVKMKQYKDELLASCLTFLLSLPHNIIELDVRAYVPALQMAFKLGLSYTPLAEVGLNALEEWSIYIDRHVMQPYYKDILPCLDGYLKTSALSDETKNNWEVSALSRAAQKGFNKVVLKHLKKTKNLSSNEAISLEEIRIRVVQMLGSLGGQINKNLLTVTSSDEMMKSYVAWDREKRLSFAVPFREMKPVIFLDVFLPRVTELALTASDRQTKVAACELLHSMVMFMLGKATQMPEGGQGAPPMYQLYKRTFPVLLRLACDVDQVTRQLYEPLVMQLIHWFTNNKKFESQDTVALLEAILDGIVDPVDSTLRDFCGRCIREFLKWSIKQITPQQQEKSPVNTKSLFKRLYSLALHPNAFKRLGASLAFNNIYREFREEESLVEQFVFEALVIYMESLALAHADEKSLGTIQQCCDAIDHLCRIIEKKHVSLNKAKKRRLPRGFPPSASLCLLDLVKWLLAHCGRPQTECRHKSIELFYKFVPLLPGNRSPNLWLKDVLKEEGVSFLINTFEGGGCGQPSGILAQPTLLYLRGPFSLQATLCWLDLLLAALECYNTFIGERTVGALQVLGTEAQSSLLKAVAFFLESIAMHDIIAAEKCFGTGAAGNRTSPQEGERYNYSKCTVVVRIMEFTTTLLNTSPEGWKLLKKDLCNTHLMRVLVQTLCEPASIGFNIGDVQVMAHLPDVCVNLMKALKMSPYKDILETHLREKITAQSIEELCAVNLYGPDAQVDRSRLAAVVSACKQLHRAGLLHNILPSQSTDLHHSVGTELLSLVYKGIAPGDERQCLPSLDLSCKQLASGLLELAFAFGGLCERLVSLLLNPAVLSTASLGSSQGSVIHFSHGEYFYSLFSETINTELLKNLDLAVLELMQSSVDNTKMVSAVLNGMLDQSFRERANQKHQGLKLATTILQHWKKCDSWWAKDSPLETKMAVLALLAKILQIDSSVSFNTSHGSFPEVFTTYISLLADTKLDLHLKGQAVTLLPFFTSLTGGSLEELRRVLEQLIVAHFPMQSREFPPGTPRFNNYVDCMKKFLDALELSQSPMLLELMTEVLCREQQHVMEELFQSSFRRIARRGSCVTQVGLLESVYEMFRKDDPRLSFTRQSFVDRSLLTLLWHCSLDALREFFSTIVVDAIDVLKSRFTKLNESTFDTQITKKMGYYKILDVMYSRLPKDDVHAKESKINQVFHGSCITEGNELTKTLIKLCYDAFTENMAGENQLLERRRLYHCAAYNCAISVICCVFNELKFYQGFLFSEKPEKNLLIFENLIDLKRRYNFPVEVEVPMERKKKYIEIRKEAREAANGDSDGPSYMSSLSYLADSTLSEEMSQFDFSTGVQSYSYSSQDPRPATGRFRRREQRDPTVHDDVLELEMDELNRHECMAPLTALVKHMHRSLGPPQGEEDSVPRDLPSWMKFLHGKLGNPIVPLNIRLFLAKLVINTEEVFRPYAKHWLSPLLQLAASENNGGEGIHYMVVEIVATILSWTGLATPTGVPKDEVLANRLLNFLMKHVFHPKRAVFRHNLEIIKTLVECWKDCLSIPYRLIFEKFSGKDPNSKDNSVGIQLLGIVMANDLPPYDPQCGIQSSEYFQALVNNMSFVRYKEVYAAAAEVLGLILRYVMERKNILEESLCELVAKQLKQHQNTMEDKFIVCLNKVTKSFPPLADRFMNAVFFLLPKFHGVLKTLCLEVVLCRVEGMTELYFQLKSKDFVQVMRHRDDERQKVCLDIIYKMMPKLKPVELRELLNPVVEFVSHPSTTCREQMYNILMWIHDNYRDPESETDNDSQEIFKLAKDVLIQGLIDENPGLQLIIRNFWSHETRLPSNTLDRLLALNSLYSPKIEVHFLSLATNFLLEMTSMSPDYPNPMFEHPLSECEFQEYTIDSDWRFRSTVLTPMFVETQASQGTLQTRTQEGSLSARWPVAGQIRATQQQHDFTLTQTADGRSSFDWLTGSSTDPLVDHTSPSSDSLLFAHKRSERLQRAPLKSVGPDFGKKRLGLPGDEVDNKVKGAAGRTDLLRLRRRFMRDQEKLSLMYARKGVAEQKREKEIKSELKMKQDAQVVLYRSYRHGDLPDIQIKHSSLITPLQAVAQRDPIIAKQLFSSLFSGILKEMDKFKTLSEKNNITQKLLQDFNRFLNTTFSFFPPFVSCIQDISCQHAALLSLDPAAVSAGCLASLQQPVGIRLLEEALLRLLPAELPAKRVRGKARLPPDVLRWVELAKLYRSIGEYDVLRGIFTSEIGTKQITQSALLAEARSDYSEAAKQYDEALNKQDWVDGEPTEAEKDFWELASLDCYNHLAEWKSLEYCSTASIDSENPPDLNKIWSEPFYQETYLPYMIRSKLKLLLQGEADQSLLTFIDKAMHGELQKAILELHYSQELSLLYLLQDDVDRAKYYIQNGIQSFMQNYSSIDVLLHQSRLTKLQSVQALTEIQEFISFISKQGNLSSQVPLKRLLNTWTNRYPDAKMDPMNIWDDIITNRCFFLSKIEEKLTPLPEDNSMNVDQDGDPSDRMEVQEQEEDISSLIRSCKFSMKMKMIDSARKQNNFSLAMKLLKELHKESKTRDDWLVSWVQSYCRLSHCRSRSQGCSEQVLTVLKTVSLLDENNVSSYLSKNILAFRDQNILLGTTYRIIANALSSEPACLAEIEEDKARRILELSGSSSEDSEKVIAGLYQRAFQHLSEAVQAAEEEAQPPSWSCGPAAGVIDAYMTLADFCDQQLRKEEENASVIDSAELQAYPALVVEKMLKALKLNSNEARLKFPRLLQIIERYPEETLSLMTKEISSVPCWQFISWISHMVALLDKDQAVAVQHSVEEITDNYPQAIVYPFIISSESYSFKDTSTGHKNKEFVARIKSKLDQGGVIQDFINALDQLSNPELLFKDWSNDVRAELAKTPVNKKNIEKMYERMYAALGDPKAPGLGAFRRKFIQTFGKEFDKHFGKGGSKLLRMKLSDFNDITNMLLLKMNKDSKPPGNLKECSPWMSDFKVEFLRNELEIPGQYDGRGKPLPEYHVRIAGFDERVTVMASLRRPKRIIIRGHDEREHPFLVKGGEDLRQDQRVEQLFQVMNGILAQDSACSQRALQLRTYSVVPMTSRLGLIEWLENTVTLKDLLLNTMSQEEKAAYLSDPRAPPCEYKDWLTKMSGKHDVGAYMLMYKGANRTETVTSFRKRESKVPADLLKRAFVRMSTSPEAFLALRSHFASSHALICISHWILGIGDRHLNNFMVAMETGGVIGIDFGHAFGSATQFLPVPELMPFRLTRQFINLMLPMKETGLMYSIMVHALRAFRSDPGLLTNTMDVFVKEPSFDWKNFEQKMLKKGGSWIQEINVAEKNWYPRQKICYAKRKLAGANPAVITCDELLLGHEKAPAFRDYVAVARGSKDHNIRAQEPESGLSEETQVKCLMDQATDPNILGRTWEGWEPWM
UniProt O60216: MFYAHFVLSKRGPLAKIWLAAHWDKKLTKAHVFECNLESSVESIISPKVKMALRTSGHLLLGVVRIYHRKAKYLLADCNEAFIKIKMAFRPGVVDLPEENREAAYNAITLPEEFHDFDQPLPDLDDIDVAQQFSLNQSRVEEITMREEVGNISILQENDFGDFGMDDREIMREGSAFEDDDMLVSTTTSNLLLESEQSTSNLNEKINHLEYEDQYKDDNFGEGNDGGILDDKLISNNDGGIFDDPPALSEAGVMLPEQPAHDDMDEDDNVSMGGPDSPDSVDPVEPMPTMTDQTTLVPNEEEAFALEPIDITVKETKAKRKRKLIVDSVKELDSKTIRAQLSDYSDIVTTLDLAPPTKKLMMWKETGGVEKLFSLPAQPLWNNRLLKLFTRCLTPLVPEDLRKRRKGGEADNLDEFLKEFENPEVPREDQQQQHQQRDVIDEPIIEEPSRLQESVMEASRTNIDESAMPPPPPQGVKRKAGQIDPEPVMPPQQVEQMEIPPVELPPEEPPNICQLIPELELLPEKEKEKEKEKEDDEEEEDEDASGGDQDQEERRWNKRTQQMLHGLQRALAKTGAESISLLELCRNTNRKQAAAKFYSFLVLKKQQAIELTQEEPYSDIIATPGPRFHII
UniProt Q92922: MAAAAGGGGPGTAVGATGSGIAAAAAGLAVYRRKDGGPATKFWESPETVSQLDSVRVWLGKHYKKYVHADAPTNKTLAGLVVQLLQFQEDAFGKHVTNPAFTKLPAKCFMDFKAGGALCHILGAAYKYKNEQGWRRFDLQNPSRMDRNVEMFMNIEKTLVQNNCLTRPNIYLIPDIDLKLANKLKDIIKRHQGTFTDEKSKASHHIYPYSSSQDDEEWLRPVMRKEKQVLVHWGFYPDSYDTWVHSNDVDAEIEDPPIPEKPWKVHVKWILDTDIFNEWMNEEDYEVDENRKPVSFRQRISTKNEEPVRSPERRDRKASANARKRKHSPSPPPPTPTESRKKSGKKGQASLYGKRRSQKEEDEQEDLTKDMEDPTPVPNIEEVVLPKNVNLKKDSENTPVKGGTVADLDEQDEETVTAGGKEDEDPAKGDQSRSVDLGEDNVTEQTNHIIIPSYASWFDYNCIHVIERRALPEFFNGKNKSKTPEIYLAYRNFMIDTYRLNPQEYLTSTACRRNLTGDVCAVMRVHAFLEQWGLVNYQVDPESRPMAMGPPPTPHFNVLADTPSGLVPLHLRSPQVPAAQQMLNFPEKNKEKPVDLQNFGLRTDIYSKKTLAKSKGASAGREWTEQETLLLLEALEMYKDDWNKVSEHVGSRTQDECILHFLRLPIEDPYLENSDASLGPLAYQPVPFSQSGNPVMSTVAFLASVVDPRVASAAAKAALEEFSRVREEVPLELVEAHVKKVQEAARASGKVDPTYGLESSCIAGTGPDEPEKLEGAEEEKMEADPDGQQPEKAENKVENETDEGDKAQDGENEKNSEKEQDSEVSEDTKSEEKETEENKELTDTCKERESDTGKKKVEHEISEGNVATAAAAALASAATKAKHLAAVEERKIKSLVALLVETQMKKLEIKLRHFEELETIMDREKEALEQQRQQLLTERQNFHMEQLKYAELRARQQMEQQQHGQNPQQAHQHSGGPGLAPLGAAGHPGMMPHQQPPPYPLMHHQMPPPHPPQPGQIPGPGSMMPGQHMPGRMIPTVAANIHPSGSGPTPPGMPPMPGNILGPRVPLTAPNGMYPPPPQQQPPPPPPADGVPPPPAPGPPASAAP

Results are given in words; binding and its absence hold for the method and conditions named. Binding seen in cells or lysates may run through a third protein. Here binding means that the protein was enriched with, or labelled near, the bait; the list need not be complete.

The labels stand for the following.
B1: TFCP2 (protein, UniProt Q12800 1-502)
chain: MAWALKLPLADEVIESGLVQDFDASLSGIGQELGAGAYSMSDVLALPIFKQEESSLPPDNENKILPFQYVLCAATSPAVKLHDETLTYLNQGQSYEIRMLDNRKLGELPEINGKLVKSIFRVVFHDRRLQYTEHQQLEGWRWNRPGDRILDIDIPMSVGIIDPRANPTQLNTVEFLWDPAKRTSVFIQVHCISTEFTMRKHGGEKGVPFRVQIDTFKENENGEYTEHLHSASCQIKVFKPKGADRKQKTDREKMEKRTPHEKEKYQPSYETTILTECSPWPEITYVNNSPSPGFNSSHSSFSLGEGNGSPNHQPEPPPPVTDNLLPTTTPQEAQQWLHRNRFSTFTRLFTNFSGADLLKLTRDDVIQICGPADGIRLFNALKGRMVRPRLTIYVCQESLQLREQQQQQQQQQQKHEDGDSNGTFFVYHAIYLEELTAVELTEKIAQLFSISPCQISQIYKQGPTGIHVLISDEMIQNFQEEACFILDTMKAETNDSYHIILK
B2: GLYR (protein, UniProt Q49A26 1-553)
chain: MAAVSLRLGDLVWGKLGRYPPWPGKIVNPPKDLKKPRGKKCFFVKFFGTEDHAWIKVEQLKPYHAHKEEMIKINKGKRFQQAVDAVEEFLRRAKGKDQTSSHNSSDDKNRRNSSEERSRPNSGDEKRKLSLSEGKVKKNMGEGKKRVSSGSSERGSKSPLKRAQEQSPRKRGRPPKDEKDLTIPESSTVKGMMAGPMAAFKWQPTASEPVKDADPHFHHFLLSQTEKPAVCYQAITKKLKICEEETGSTSIQAADSTAVNGSITPTDKKIGFLGLGLMGSGIVSNLLKMGHTVTVWNRTAEKCDLFIQEGARLGRTPAEVVSTCDITFACVSDPKAAKDLVLGPSGVLQGIRPGKCYVDMSTVDADTVTELAQVIVSRGGRFLEAPVSGNQQLSNDGMLVILAAGDRGLYEDCSSCFQAMGKTSFFLGEVGNAAKMMLIVNMVQGSFMATIAEGLTLAQVTGQSQQTLLDILNQGQLASIFLDQKCQNILQGNFKPDFYLKYIQKDLRLAIALGDAVNHPTPMAAAANEVYKRAKALDQSDNDMSAVYRAYIH
B3: SF1 (protein, UniProt Q15637 1-639)
chain: MATGANATPLDFPSKKRKRSRWNQDTMEQKTVIPGMPTVIPPGLTREQERAYIVQLQIEDLTRKLRTGDLGIPPNPEDRSPSPEPIYNSEGKRLNTREFRTRKKLEEERHNLITEMVALNPDFKPPADYKPPATRVSDKVMIPQDEYPEINFVGLLIGPRGNTLKNIEKECNAKIMIRGKGSVKEGKVGRKDGQMLPGEDEPLHALVTANTMENVKKAVEQIRNILKQGIETPEDQNDLRKMQLRELARLNGTLREDDNRILRPWQSSETRSITNTTVCTKCGGAGHIASDCKFQRPGDPQSAQDKARMDKEYLSLMAELGEAPVPASVGSTSGPATTPLASAPRPAAPANNPPPPSLMSTTQSRPPWMNSGPSESRPYHGMHGGGPGGPGGGPHSFPHPLPSLTGGHGGHPMQHNPNGPPPPWMQPPPPPMNQGPHPPGHHGPPPMDQYLGSTPVGSGVYRLHQGKGMMPPPPMGMMPPPPPPPSGQPPPPPSGPLPPWQQQQQQPPPPPPPSSSMASSTPLPWQQNTTTTTTSAGTGSIPPWQQQQAAAAASPGAPQMQGNPTMVPLPPGVQPPLPPGAPPPPPPPPPGSAGMMYAPPPPPPPPMDPSNFVTMMGMGVAGMPPFGMPPAPPPPPPQN
B4: SMC1A (protein, UniProt Q14683 1-1233)
chain: MGFLKLIEIENFKSYKGRQIIGPFQRFTAIIGPNGSGKSNLMDAISFVLGEKTSNLRVKTLRDLIHGAPVGKPAANRAFVSMVYSEEGAEDRTFARVIVGGSSEYKINNKVVQLHEYSEELEKLGILIKARNFLVFQGAVESIAMKNPKERTALFEEISRSGELAQEYDKRKKEMVKAEEDTQFNYHRKKNIAAERKEAKQEKEEADRYQRLKDEVVRAQVQLQLFKLYHNEVEIEKLNKELASKNKEIEKDKKRMDKVEDELKEKKKELGKMMREQQQIEKEIKEKDSELNQKRPQYIKAKENTSHKIKKLEAAKKSLQNAQKHYKKRKGDMDELEKEMLSVEKARQEFEERMEEESQSQGRDLTLEENQVKKYHRLKEEASKRAATLAQELEKFNRDQKADQDRLDLEERKKVETEAKIKQKLREIEENQKRIEKLEEYITTSKQSLEEQKKLEGELTEEVEMAKRRIDEINKELNQVMEQLGDARIDRQESSRQQRKAEIMESIKRLYPGSVYGRLIDLCQPTQKKYQIAVTKVLGKNMDAIIVDSEKTGRDCIQYIKEQRGEPETFLPLDYLEVKPTDEKLRELKGAKLVIDVIRYEPPHIKKALQYACGNALVCDNVEDARRIAFGGHQRHKTVALDGTLFQKSGVISGGASDLKAKARRWDEKAVDKLKEKKERLTEELKEQMKAKRKEAELRQVQSQAHGLQMRLKYSQSDLEQTKTRHLALNLQEKSKLESELANFGPRINDIKRIIQSREREMKDLKEKMNQVEDEVFEEFCREIGVRNIREFEEEKVKRQNEIAKKRLEFENQKTRLGIQLDFEKNQLKEDQDKVHMWEQTVKKDENEIEKLKKEEQRHMKIIDETMAQLQDLKNQHLAKKSEVNDKNHEMEEIRKKLGGANKEMTHLQKEVTAIETKLEQKRSDRHNLLQACKMQDIKLPLSKGTMDDISQEEGSSQGEDSVSGSQRISSIYAREALIEIDYGDLCEDLKDAQAEEEIKQEMNTLQQKLNEQQSVLQRIAAPNMKAMEKLESVRDKFQETSDEFEAARKRAKKAKQAFEQIKKERFDRFNACFESVATNIDEIYKALSRNSSAQAFLGPENPEEPYLDGINYNCVAPGKRFRPMDNLSGGEKTVAALALLFAIHSYKPAPFFVLDEIDAALDNTNIGKVANYIKEQSTCNFQAIVISLKEEFYTKAESLIGVYPEQGDCVISKVLTFDLTKYPDANPNPNEQ

The target in the assay is Yes1-associated transcriptional regulator (YAP1) (human (endogenous in the human SSC line)) (UniProt P46937). Briefly: affinity purification with mass spectrometry; Co-IP/MS from human SSCs with anti-YAP1 antibody, normal IgG as control; beads eluted, trypsin digest, LC-MS (Q-Exactive Plus); the hits named are up-regulated proteins that are also predicted transcription factors of NEDD4.
In the case of LMNB1 (from UniProt P20700 1-586), the binding result is given as “binds”.
On to MAFG (from UniProt O15525 1-162), for which the binding entry is reported as “binds”.
To PRKDC (from UniProt P78527 1-4128) belongs “binds”; to “RAD21 (RAD21 cohesin complex component) (from UniProt O60216 1-631)”, “binds”.
The value for SMARCC1 (from UniProt Q92922 1-1105) was “binds”; that for B1 was “binds”.
For B2, the binding result is “binds”.
For the molecule B3, the binding result was “binds”.
To B4 belongs “binds”.
